1 substance from paper PMC10121161 can be followed below.

By UniProt entry, the sequences of proteins in these tests, tags left out.
UniProt Q09065: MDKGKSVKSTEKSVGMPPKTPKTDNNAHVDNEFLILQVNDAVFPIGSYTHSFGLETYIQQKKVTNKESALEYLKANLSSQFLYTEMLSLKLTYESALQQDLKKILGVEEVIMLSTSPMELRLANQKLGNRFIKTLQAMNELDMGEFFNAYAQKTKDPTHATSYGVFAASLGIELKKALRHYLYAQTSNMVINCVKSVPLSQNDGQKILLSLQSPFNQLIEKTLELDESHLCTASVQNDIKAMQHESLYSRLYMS

These are yes or no findings as the source states them, for the method shown. Some results given as binding are weak or reduced against the parent protein; the word gives no strength. Sequences can lack the tags named with a protein.

The target in the test is T1, HpUreDstr (HpUreD with C-terminal Strep-tag II), wild type, from pHpUreGFDstr (Helicobacter pylori) (UniProt Q09067).
T1 sequence: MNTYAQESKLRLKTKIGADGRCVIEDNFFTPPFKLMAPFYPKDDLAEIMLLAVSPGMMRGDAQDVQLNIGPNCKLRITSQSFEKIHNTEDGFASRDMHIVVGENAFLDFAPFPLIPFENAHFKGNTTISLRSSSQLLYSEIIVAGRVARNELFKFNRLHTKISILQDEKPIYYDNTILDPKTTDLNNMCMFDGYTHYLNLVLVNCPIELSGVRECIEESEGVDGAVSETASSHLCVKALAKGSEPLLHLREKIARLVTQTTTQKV
Briefly: co-purification (Strep-Tactin affinity chromatography); HpUreDstr coexpressed with HpUreF and HpUreG in E. coli; lysate with 0.5 mM GDP and 1 mM MgSO4 loaded on Strep-Tactin XT resin; 50 mM Hepes, 200 mM NaCl, 1 mM TCEP-HCl (pH 7.5); eluted with 50 mM D-biotin.

In the case of “HpUreF, wild type, from pHpUreGFDstr (from UniProt Q09065 1-254)”, the binding result was “binds”.
